Results are given in words; binding and its absence hold for the method and conditions named. Some results given as binding are weak or reduced against the parent protein; the word gives no strength.

The text below walks through data of patent US20050064493A1 (LICENTIA, published 2005).

For the assay, the target named is T1, human VEGF165 (human), P15692.
T1 chain: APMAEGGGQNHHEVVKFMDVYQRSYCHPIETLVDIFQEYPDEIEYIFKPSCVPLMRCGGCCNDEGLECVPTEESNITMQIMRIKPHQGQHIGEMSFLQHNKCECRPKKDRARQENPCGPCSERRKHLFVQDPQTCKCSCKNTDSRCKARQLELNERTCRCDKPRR
As to the kind of experiment: immunoprecipitation and SDS-PAGE, transfected 293EBNA cells. The settings on record: remark: other sources report otherwise.

B1: human VEGF165, P15692 27-191 (ligand, UniProt P15692-4 27-191, looked up)
chain: T1 chain
Regarding B1, the binding entry is “binds”.
